PubChem BioAssay AID1259254 | NCATS, 2017

- Screen: 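Gene knock-downs that lead to re-replication, shown by excess G2 DNA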 (primary screen)
- Cell system: human HCT116 colorectal cancer cells
- Reagents: single siRNA against human genes
- Timing: 3 days
- Detection: 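Imaged Hoechst DNA stain sorts each cell into a cycle phase by DNA amount; per plate, G2 fraction set to 0% for non-targeting and 100% for GMNN siRNA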
- Scale: G2 robust z-score and G2 cells, % of GMNN control: higher = more G2 cells, more excess DNA replication
- Active means: 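An siRNA counts as active if its G2 robust z-score lies at least 5 MADs above the screen median; here such calls match roughly 38% of GMNN control or more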
Shown is one part, drawn at random, of about 59,000 deposited reagents. About 1,550 of them (2.6%) were called active. 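G2 share is only a proxy for re-replication; each gene was hit by three separate siRNAs, and active genes were retested.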 Not all columns of the deposit are shown. Reagent sequences are not shown. Not given: the amount of reagent.

How did the screen score GOLM1 [SID160740483]?
G2 robust z-score: -0.156; G2 cells, % of GMNN control: 1.87; Call: inactive

For GOLM1 [SID160740484], what was measured?
G2 robust z-score: -0.664; G2 cells, % of GMNN control: -1.7; Call: inactive

What is on record for GOLM1 [SID160740485]?
G2 robust z-score: -1.08; G2 cells, % of GMNN control: -4.63; Call: inactive

Which result is listed for OR1J1 [SID160764934]?
G2 robust z-score: -0.832; G2 cells, % of GMNN control: -2.89; Call: inactive

With OR1J1 [SID160764935], what does the deposit list?
G2 robust z-score: 0.453; G2 cells, % of GMNN control: 6.16; Call: inactive

What is on record for OR1J1 [SID160764936]?
G2 robust z-score: 0.248; G2 cells, % of GMNN control: 4.71; Call: inactive

Which result is listed for NUMA1 [SID160778299]?
G2 robust z-score: 0.354; G2 cells, % of GMNN control: 5.46; Call: inactive

With NUMA1 [SID160778300], what was measured?
G2 robust z-score: -0.45; G2 cells, % of GMNN control: -0.197; Call: inactive

With NUMA1 [SID160778301], what does the deposit list?
G2 robust z-score: 3.01; G2 cells, % of GMNN control: 24.1; Call: inactive

For PIM1 [SID160714341], how do the results read?
G2 robust z-score: -0.759; G2 cells, % of GMNN control: -2.37; Call: inactive

Which result is listed for PIM1 [SID160714342]?
G2 robust z-score: -0.0657; G2 cells, % of GMNN control: 2.5; Call: inactive

With PIM1 [SID160714343], what does the deposit list?
G2 robust z-score: -1.36; G2 cells, % of GMNN control: -6.59; Call: inactive

With CDA [SID160739907], how do the results read?
G2 robust z-score: 3.61; G2 cells, % of GMNN control: 28.3; Call: inactive

Which result is listed for CDA [SID160739918]?
G2 robust z-score: -0.482; G2 cells, % of GMNN control: -0.426; Call: inactive

What is on record for CDA [SID160739929]?
G2 robust z-score: -0.833; G2 cells, % of GMNN control: -2.89; Call: inactive

How did the screen score SRP19 [SID160717340]?
G2 robust z-score: 5.44; G2 cells, % of GMNN control: 41.2; Call: active

What did the screen give for SRP19 [SID160717341]?
G2 robust z-score: 1.65; G2 cells, % of GMNN control: 14.6; Call: inactive

What did the screen give for SRP19 [SID160717343]?
G2 robust z-score: 2.61; G2 cells, % of GMNN control: 21.4; Call: inactive

Which result is listed for MRPL27 [SID160740443]?
G2 robust z-score: -0.377; G2 cells, % of GMNN control: 0.314; Call: inactive

Which result is listed for MRPL27 [SID160740444]?
G2 robust z-score: 2.07; G2 cells, % of GMNN control: 17.5; Call: inactive

What is on record for MRPL27 [SID160740445]?
G2 robust z-score: -1.02; G2 cells, % of GMNN control: -4.21; Call: inactive

For ACRV1 [SID160733655], how do the results read?
G2 robust z-score: 1.04; G2 cells, % of GMNN control: 10.3; Call: inactive

With ACRV1 [SID160777891], what was measured?
G2 robust z-score: 0.64; G2 cells, % of GMNN control: 7.47; Call: inactive

With ACRV1 [SID160777912], how do the results read?
G2 robust z-score: -1.31; G2 cells, % of GMNN control: -6.27; Call: inactive

With LSM8 [SID160731391], how do the results read?
G2 robust z-score: -1.18; G2 cells, % of GMNN control: -5.32; Call: inactive

What is on record for LSM8 [SID160741216]?
G2 robust z-score: -0.642; G2 cells, % of GMNN control: -1.55; Call: inactive

How did the screen score LSM8 [SID160741218]?
G2 robust z-score: 2.14; G2 cells, % of GMNN control: 18.1; Call: inactive

With ANO10 [SID160743009], what was measured?
G2 robust z-score: 0.559; G2 cells, % of GMNN control: 6.9; Call: inactive

With ANO10 [SID160743010], what was measured?
G2 robust z-score: -0.149; G2 cells, % of GMNN control: 1.92; Call: inactive

Which result is listed for ANO10 [SID160743011]?
G2 robust z-score: -0.284; G2 cells, % of GMNN control: 0.966; Call: inactive

2 entries from above, ordered by “G2 cells, % of GMNN control”, ascending:
CDA [SID160739918] | G2 robust z-score: -0.482; G2 cells, % of GMNN control: -0.426; Call: inactive
CDA [SID160739907] | G2 robust z-score: 3.61; G2 cells, % of GMNN control: 28.3; Call: inactive
